Data published in PubChem BioAssay AID330 (DTP/NCI, 2004).
The list does not hold the whole screen: it is rich in T/C values a quarter to a half above the control, in often repeated tests (any T/C) and in doses without a T/C. Further doses and runs are listed elsewhere. T/C: endpoint of the treated group in % of that of the vehicle group. Some doses have a count of surviving animals in place of a T/C: the source holds a T/C of zero for them, seemingly a mark for toxic or unscored doses. Some survivor counts are full or nearly so, which does not show that the dose was tolerated: survival well below the control is almost never listed, so the zero probably covers shortened survival too. Counts of survivors are from the toxicity check (mostly the fifth day) where no day follows; animals may have died later. Schedules are NCI's codes, read here as Q, the interval in days (D) or hours (H), X, the number of doses. Where survival is the endpoint, this PubChem deposit counts one and a half times the control or more as active, and values a quarter to a half above the control carry no call in these data; other NCI protocols may use other cut-offs. Some doses were run more than once; their values stand side by side, smallest first. Some T/C values carry the count of animals alive at the toxicity check (mostly the fifth day); where none is given, no animal had died by that day.

Tested on: P388 leukemia ip, CD2F1 mice, survival T/C
Assay: NCI In Vivo Anticancer Drug Screen. Data for tumor model P388 Leukemia (intraperitoneal) in CD2F1 (CDF1) mice
Settings: T/C endpoint: median survival time, higher T/C = longer survival
[1] = dose: 50.0 mg/kg/injection, schedule: Q01DX009 (ip), vehicle: Klucel (hydroxypropylcellulose) (HPC)
[2] = dose: 200.0 mg/kg/injection, schedule: Q01DX009 (ip), vehicle: Klucel (hydroxypropylcellulose) (HPC)
[3] = dose: 100.0 mg/kg/injection, schedule: Q01DX009 (ip), vehicle: Klucel (hydroxypropylcellulose) (HPC)
[4] = dose: 200.0 mg/kg/injection, schedule: Q01DX009 (ip), vehicle: saline with Tween-80
[5] = dose: 50.0 mg/kg/injection, schedule: Q01DX005 (ip), vehicle: Klucel (hydroxypropylcellulose) (HPC)
[6] = dose: 400.0 mg/kg/injection, schedule: Q04DX002 (ip), vehicle: saline with Tween-80
[7] = dose: 240.0 mg/kg/injection, schedule: Q01DX005 (ip), vehicle: Klucel (hydroxypropylcellulose) (HPC)
[8] = dose: 200.0 mg/kg/injection, schedule: Q01DX005 (ip), vehicle: saline with Tween-80

Cc1nc(N)nc(N)c1-c1ccc(Cl)c(Cl)c1
T/C (dose: 1.5 mg/kg/injection, schedule: Q01DX009 (ip), vehicle: saline with Tween-80): 127 % of control | T/C (dose: 2.0 mg/kg/injection, schedule: Q01DX009 (sc), vehicle: other): 127 % of control | T/C (dose: 3.0 mg/kg/injection, schedule: Q01DX009 (sc), vehicle: other): 131 % of control | T/C (dose: 4.0 mg/kg/injection, schedule: Q01DX009 (sc), vehicle: other): 127 % of control | T/C (dose: 5.0 mg/kg/injection, schedule: Q01DX009 (sc), vehicle: other): 149 % of control | T/C (dose: 12.5 mg/kg/injection, schedule: Q04DX003 (ip), vehicle: saline with Tween-80): 140 % of control | survivor count (dose: 16.0 mg/kg/injection, schedule: Q01DX009 (ip), vehicle: saline): 5 of 6 | T/C (dose: 40.0 mg/kg/injection, schedule: Q04DX002 (ip), vehicle: saline): 148 % of control | T/C (dose: 50.0 mg/kg/injection, schedule: Q04DX002 (ip), vehicle: saline): 127 % of control | survivor count (dose: 50.0 mg/kg/injection, schedule: Q04DX003 (ip), vehicle: saline with Tween-80): 6 of 6 | T/C (dose: 60.0 mg/kg/injection, schedule: Q04DX002 (ip), vehicle: saline): 131 % of control [5 of 6 alive] | survivor count (dose: 100.0 mg/kg/injection, schedule: Q04DX003 (ip), vehicle: saline with Tween-80): 6 of 6 | survivor count (dose: 200.0 mg/kg/injection, schedule: Q04DX003 (ip), vehicle: saline with Tween-80): 3 of 6

NS(=O)(=O)c1ccc(Nc2c3ccccc3nc3cc(Cl)ccc23)cc1
survivor count [1]: 6 of 6 | survivor count [2]: 5 of 6

CCCCCCCCCCCC[N+](C)(C)C (tested in a mixture with another compound)
survivor count [1]: 4 of 6 | survivor count [3]: 0 of 6

C1CN=C(N2CCCC2)C1
survivor count (dose: 100.0 mg/kg/injection, schedule: Q01DX009 (ip), vehicle: saline with Tween-80): 0 of 6 | survivor count [4]: 0 of 6

CC1=Nc2ccc(C(F)(F)F)cc2NC(=O)C1
survivor count [5]: 4 of 6

O=C1C=C(NCCCC2CCCN3CCCCC23)C(=O)c2ccccc21 (stereo not given)
survivor count [5]: 0 of 6 | survivor count (dose: 100.0 mg/kg/injection, schedule: Q01DX005 (ip), vehicle: Klucel (hydroxypropylcellulose) (HPC)): 0 of 6 | survivor count (dose: 200.0 mg/kg/injection, schedule: Q01DX005 (ip), vehicle: Klucel (hydroxypropylcellulose) (HPC)): 0 of 6

CCCCC/C=C/C/C=C\CCCCCCCC(=O)NC1CC(O)C(O)NC(=O)C2C(O)C(C)CN2C(=O)C(C(C)O)NC(=O)C(C(O)C(O)c2ccc(O)cc2)NC(=O)C2CC(O)CN2C(=O)C(C(C)O)NC1=O (stereo not given)
survivor count (dose: 0.13 mg/kg/injection, schedule: Q01DX009 (ip), vehicle: lactate): 6 of 6 | survivor count (dose: 1.0 mg/kg/injection, schedule: Q01DX009 (ip), vehicle: lactate): 2 of 6 | survivor count (dose: 8.5 mg/kg/injection, schedule: Q01DX009 (ip), vehicle: lactate): 4 of 6 | survivor count (dose: 17.0 mg/kg/injection, schedule: Q01DX009 (ip), vehicle: lactate): 0 of 6 | survivor count (dose: 34.0 mg/kg/injection, schedule: Q01DX009 (ip), vehicle: lactate): 0 of 6 | survivor count (dose: 68.0 mg/kg/injection, schedule: Q01DX009 (ip), vehicle: lactate): 0 of 6

CC(C)(C)N=C(CCN1CCN(c2ccccc2)CC1)Nc1c(Cl)cccc1Cl
survivor count [4]: 0 of 6

CN(C)c1cc(O)c(-n2c3cc(=O)c(N(C)C)cc-3nc3ccccc32)cc1O
survivor count (dose: 50.0 mg/kg/injection, schedule: Q01DX009 (ip), vehicle: saline with Tween-80): 2 of 6 | survivor count (dose: 200.0 mg/kg/injection, schedule: Q01DX009 (ip), vehicle: saline): 0 of 6

C#CC(=O)OC
survivor count (dose: 100.0 mg/kg/injection, schedule: Q04DX002 (ip), vehicle: saline): 0 of 6 | survivor count (dose: 200.0 mg/kg/injection, schedule: Q04DX002 (ip), vehicle: saline): 0 of 6 | survivor count (dose: 400.0 mg/kg/injection, schedule: Q04DX002 (ip), vehicle: saline): 0 of 6

C[As](C)SCC(N)C(=O)O (stereo not given)
survivor count [3]: 6 of 6 | survivor count [2]: 1 of 6

ClCCN(CCCN(CCCl)c1ccccc1)c1ccccc1
T/C (dose: 100.0 mg/kg/injection, schedule: Q01DX001 (ip), vehicle: saline with Tween-80): 130 and 131 % of control | T/C (dose: 200.0 mg/kg/injection, schedule: Q01DX001 (ip), vehicle: saline with Tween-80): 140 % of control | survivor count (dose: 800.0 mg/kg/injection, schedule: Q01DX001 (ip), vehicle: saline with Tween-80): 0 of 6

c1csc(-c2n[se]c(-c3cccs3)n2)c1
survivor count (dose: 50.0 mg/kg/injection, schedule: Q04DX002 (ip), vehicle: saline with Tween-80): 3 of 6 | survivor count (dose: 100.0 mg/kg/injection, schedule: Q04DX002 (ip), vehicle: saline with Tween-80): 5 of 6 | survivor count (dose: 200.0 mg/kg/injection, schedule: Q04DX002 (ip), vehicle: saline with Tween-80): 5 of 6 | survivor count [6]: 0 of 6

CCOC(=O)C1=C(C(=O)c2ccccc2)C(c2ccccc2[N+](=O)[O-])C(C(=O)c2ccccc2)=C(C(=O)OCC)N1
survivor count (dose: 240.0 mg/kg/injection, schedule: Q01DX005 (ip), vehicle: saline with Tween-80): 2 of 6

O=C1CC=C2C3CC4N(CCC45c4ccccc4N1C25)C/C3=C\CBr (stereo not given)
survivor count (dose: 15.0 mg/kg/injection, schedule: Q01DX005 (ip), vehicle: Klucel (hydroxypropylcellulose) (HPC)): 3 of 6 | survivor count (dose: 30.0 mg/kg/injection, schedule: Q01DX005 (ip), vehicle: Klucel (hydroxypropylcellulose) (HPC)): 0 of 6 | survivor count (dose: 60.0 mg/kg/injection, schedule: Q01DX005 (ip), vehicle: Klucel (hydroxypropylcellulose) (HPC)): 0 of 6 | survivor count (dose: 120.0 mg/kg/injection, schedule: Q01DX005 (ip), vehicle: Klucel (hydroxypropylcellulose) (HPC)): 0 of 6 | survivor count [7]: 0 of 6

O=C1C=CC2(CCCCC2)CC1
survivor count (dose: 100.0 mg/kg/injection, schedule: Q04DX003 (ip), vehicle: Klucel (hydroxypropylcellulose) (HPC)): 0 of 6 | survivor count (dose: 200.0 mg/kg/injection, schedule: Q04DX003 (ip), vehicle: Klucel (hydroxypropylcellulose) (HPC)): 1 of 6 | survivor count (dose: 400.0 mg/kg/injection, schedule: Q04DX003 (ip), vehicle: Klucel (hydroxypropylcellulose) (HPC)): 0 of 6

O=CC(=C\c1cccs1)/C(C=O)=C\c1cccs1
survivor count [8]: 1 of 6

Clc1ccc(C(Nc2nncs2)Nc2nncs2)c(Cl)c1
T/C (dose: 400.0 mg/kg/injection, schedule: Q04DX002 (ip), vehicle: Klucel (hydroxypropylcellulose) (HPC)): 130 % of control

Cc1nc(N)[nH]c(=O)c1CCCC#N
survivor count [7]: 2 of 6

O=[N+]([O-])c1ccccc1C(Nc1nncs1)Nc1nncs1
T/C (dose: 400.0 mg/kg/injection, schedule: Q01DX005 (ip), vehicle: Klucel (hydroxypropylcellulose) (HPC)): 136 % of control

CCN(CC)CC.COC(=O)NC#N.[CH-]1CCCCC1.[CH-]1CCCCC1.[CH-]1CCCCC1.[Cl-].[Sn+4]
survivor count (dose: 12.5 mg/kg/injection, schedule: Q01DX005 (ip), vehicle: saline with Tween-80): 0 of 6 | survivor count (dose: 50.0 mg/kg/injection, schedule: Q01DX005 (ip), vehicle: saline with Tween-80): 0 of 6 | survivor count (dose: 100.0 mg/kg/injection, schedule: Q01DX005 (ip), vehicle: saline with Tween-80): 0 of 6 | survivor count [8]: 0 of 6

CCCCNC1CC(OC2CC(O)(C(C)=O)Cc3c(O)c4c(c(O)c32)C(=O)c2c(OC)cccc2C4=O)OC(C)C1O (stereo not given)
T/C (dose: 32.0 mg/kg/injection, schedule: Q01DX009 (ip), vehicle: water): 136 % of control

CCN(CC)CCN1CC(=O)N2Cc3ccccc3CN2C(=O)C1
survivor count [8]: 1 of 5

CC1CN(C(=O)Nc2c(C(C)C)cccc2C(C)C)CC(C)O1 (stereo not given)
survivor count [4]: 6 of 6

CC1C(=O)CCC2(C)CCC3C(OC(=O)C3(C)[Se]c3ccccc3)C12 (stereo not given)
survivor count [6]: 3 of 6
